The assay concerns the target nsP3-mScarlet (Sindbis virus). In words: affinity purification with mass spectrometry.

Results are given in words; binding and its absence hold for the method and conditions named. In cells and extracts the contact can be indirect. A yes stands for co-enrichment or nearness to the bait. Other partners may have been found.

B1: G3BP2 (protein, UniProt Q9UN86 1-482)
chain: MVMEKPSPLLVGREFVRQYYTLLNKAPEYLHRFYGRNSSYVHGGVDASGKPQEAVYGQNDIHHKVLSLNFSECHTKIRHVDAHATLSDGVVVQVMGLLSNSGQPERKFMQTFVLAPEGSVPNKFYVHNDMFRYEDEVFGDSEPELDEESEDEVEEEQEERQPSPEPVQENANSGYYEAHPVTNGIEEPLEESSHEPEPEPESETKTEELKPQVEEKNLEELEEKSTTPPPAEPVSLPQEPPKAFSWASVTSKNLPPSGTVSSSGIPPHVKAPVSQPRVEAKPEVQSQPPRVREQRPRERPGFPPRGPRPGRGDMEQNDSDNRRIIRYPDSHQLFVGNLPHDIDENELKEFFMSFGNVVELRINTKGVGGKLPNFGFVVFDDSEPVQRILIAKPIMFRGEVRLNVEEKKTRAARERETRGGGDDRRDIRRNDRGPGGPRGIVGGGMMRDRDGRGPPPRGGMAQKLGSGRGTGQMEGRFTGQRR
Turning to B1, the binding entry is “binds”.

Source of the values: article doi:10.1101/2021.10.06.463336.
